Measurements as given in US9550768B2, “Kinase modulation and indications therefor” (PLEXXIKON INC., priority 2011, dated 2017).
Some entries share one result that the patent states for a list of compounds.

Target: T1, FLT3-ITD (Homo sapiens, UniProt P36888)
T1 sequence (P36888 with tags, fused parts or gaps INS600HVDFREYEYD): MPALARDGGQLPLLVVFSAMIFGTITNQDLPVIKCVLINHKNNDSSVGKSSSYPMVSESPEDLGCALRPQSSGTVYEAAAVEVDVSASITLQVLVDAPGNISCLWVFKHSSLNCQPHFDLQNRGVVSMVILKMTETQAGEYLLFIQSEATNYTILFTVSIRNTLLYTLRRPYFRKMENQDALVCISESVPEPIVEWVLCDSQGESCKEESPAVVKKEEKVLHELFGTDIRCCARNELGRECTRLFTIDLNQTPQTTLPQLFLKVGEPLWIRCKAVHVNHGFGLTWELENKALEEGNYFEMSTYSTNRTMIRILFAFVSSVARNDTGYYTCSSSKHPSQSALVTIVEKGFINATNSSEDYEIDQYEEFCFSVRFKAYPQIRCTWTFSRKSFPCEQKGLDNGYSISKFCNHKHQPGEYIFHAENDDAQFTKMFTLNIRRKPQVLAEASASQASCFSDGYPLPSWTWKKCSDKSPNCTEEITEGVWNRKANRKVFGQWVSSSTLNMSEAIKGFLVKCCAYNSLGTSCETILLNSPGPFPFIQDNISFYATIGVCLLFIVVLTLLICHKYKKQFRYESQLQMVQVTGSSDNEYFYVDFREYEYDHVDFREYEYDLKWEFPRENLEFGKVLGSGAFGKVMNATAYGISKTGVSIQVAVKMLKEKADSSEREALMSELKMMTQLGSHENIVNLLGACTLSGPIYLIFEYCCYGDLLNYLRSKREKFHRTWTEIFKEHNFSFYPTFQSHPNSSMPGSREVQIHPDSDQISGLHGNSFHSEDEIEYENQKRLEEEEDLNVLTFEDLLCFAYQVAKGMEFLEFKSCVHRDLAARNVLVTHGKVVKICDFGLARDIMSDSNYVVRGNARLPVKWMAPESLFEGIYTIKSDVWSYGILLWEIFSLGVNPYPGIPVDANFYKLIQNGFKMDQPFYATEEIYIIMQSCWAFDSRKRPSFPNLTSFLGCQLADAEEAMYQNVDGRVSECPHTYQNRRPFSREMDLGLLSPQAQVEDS
Assay: Flt3 assays described in Example 3 (cell-based assays of Flt3-ITD kinase activity in MV-4-11 cells)
Details: read-out: IC50 in the Flt3 assays described above in Example 3

SMILES	IC50 [µM]
CCCS(=O)(=O)Nc1ccc(F)c(CNc2ccc(Cc3c[nH]c4ncccc34)cn2)c1F [Compound P-0258, Propane-1-sulfonic acid (2,4-difluoro-3-{[5-(1H-pyrrolo[2,3-b]pyridin-3-ylmethyl)-pyridin-2-ylamino]-methyl}-phenyl)-amide]	< 1
CCCS(=O)(=O)Nc1ccc(F)c(CNc2ccc(Cc3c[nH]c4ncc(Cl)cc34)cn2)c1F [Compound P-0259, Propane-1-sulfonic acid (3-{[5-(5-chloro-1H-pyrrolo[2,3-b]pyridin-3-ylmethyl)-pyridin-2-ylamino]-methyl}-2,4-difluoro-phenyl)-amide]	< 1
Clc1ccc(CNc2ncc(Cc3c[nH]c4ncc(Cl)cc34)cn2)cc1 [Compound P-0260, (4-Chloro-benzyl)-[5-(5-chloro-1H-pyrrolo[2,3-b]pyridin-3-ylmethyl)-pyrimidin-2-yl]-amine]	< 1
FC(F)(F)c1ccccc1CNc1ncc(Cc2c[nH]c3ncc(Cl)cc23)cn1 [Compound P-0262, [5-(5-Chloro-1H-pyrrolo[2,3-b]pyridin-3-ylmethyl)-pyrimidin-2-yl]-(2-trifluoromethyl-benzyl)-amine]	< 1
Clc1cnc2[nH]cc(Cc3cnc(NCc4ccccc4Cl)nc3)c2c1 [Compound P-0263, (2-Chloro-benzyl)-[5-(5-chloro-1-pyrrolo[2,3-b]pyridin-3-ylmethyl)-pyrimidin-2-yl]-amine]	< 1
Fc1ccccc1CNc1ncc(Cc2c[nH]c3ncc(Cl)cc23)cn1 [Compound P-0264, [5-(5-Chloro-1H-pyrrolo[2,3-b]pyridin-3-ylmethyl)-pyrimidin-2-yl]-(2-fluoro-benzyl)-amine]	< 1
Fc1ccc(CNc2ncc(Cc3c[nH]c4ncc(Cl)cc34)cn2)c(F)c1 [Compound P-0265, [5-(5-Chloro-1H-pyrrolo[2,3-b]pyridin-3-ylmethyl)-pyrimidin-2-yl]-(2,4-difluoro-benzyl)-amine]	< 1
FC(F)(F)c1ccc(CNc2ncc(Cc3c[nH]c4ncc(Cl)cc34)cn2)cc1 [Compound P-0266, [5-(5-Chloro-1H-pyrrolo[2,3-b]pyridin-3-ylmethyl)-pyrimidin-2-yl]-(4-trifluoromethyl-benzyl)-amine]	< 1
Fc1ccc(F)c(CNc2ncc(Cc3c[nH]c4ncc(Cl)cc34)cn2)c1 [Compound P-0267, [5-(5-Chloro-1H-pyrrolo[2,3-b]pyridin-3-ylmethyl)-pyrimidin-2-yl]-(2,5-difluoro-benzyl)-amine]	< 1
FC(F)(F)c1cccc(CNc2ncc(Cc3c[nH]c4ncc(Cl)cc34)cn2)c1 [Compound P-0268, [5-(5-Chloro-1H-pyrrolo[2,3-b]pyridin-3-ylmethyl)-pyrimidin-2-yl]-(3-trifluoromethyl-benzyl)-amine]	< 1
N#Cc1cnc2[nH]cc(Cc3ccc(NCc4ccc(C(F)(F)F)cc4)nc3)c2c1 [Compound P-0269, 3-[6-(4-Trifluoromethyl-benzylamino)-pyridin-3-ylmethyl]-1H-pyrrolo[2,3-b]pyridine-5-carbonitrile]	< 1
Fc1ccccc1CNc1ccc(Cc2c[nH]c3ncc(Cl)cc23)cn1 [Compound P-0270, [5-(5-Chloro-1H-pyrrolo[2,3-b]pyridin-3-ylmethyl)-pyridin-2-yl]-(2-fluoro-benzyl)-amine]	< 1
N#Cc1cnc2[nH]cc(Cc3ccc(NCc4ccccc4F)nc3)c2c1 [Compound P-0271, 3-[6-(2-Fluoro-benzylamino)-pyridin-3-ylmethyl]-1H-pyrrolo[2,3-b]pyridine-5-carbonitrile]	< 1
Cc1cnc2[nH]cc(Cc3ccc(NCc4ccccc4F)nc3)c2c1 [Compound P-0272, (2-Fluoro-benzyl)-[5-(5-methyl-1H-pyrrolo[2,3-b]pyridin-3-ylmethyl)-pyridin-2-yl]-amine]	< 1
N#Cc1cnc2[nH]cc(Cc3ccc(NCc4ccc(C(F)(F)F)nc4)nc3)c2c1 [Compound P-0273, 3-{6-[(6-Trifluoromethyl-pyridin-3-ylmethyl)-amino]-pyridin-3-ylmethyl}-1H-pyrrolo[2,3-b]pyridine-5-carbonitrile]	< 1
N#Cc1cnc2[nH]cc(Cc3ccc(NCc4ccccc4C(F)(F)F)nc3)c2c1 [Compound P-0274, 3-[6-(2-Trifluoromethyl-benzylamino)-pyridin-3-ylmethyl]-1H-pyrrolo[2,3-b]pyridine-5-carbonitrile]	< 1
FC(F)(F)c1ccccc1CNc1ccc(Cc2c[nH]c3ncc(Cl)cc23)cn1 [Compound P-0275, [5-(5-Chloro-1H-pyrrolo[2,3-b]pyridin-3-ylmethyl)-pyridin-2-yl]-(2-trifluoromethyl-benzyl)-amine]	< 1
Cc1cnc2[nH]cc(Cc3ccc(NCc4ccccc4C(F)(F)F)nc3)c2c1 [Compound P-0276]	< 1
N#Cc1cnc2[nH]cc(Cc3ccc(NCc4c(F)cccc4F)nc3)c2c1 [Compound P-0277, 3-[6-(2,6-Difluoro-benzylamino)-pyridin-3-ylmethyl]-1H-pyrrolo[2,3-b]pyridine-5-carbonitrile]	< 1
Fc1cccc(F)c1CNc1ccc(Cc2c[nH]c3ncc(Cl)cc23)cn1 [Compound P-0278, [5-(5-Chloro-1H-pyrrolo[2,3-b]pyridin-3-ylmethyl)-pyridin-2-yl]-(2,6-difluoro-benzyl)-amine]	< 1
Cc1cnc2[nH]cc(Cc3ccc(NCc4ccccc4Cl)nc3)c2c1 [Compound P-0279, (2-Chloro-benzyl)-[5-(5-methyl-1H-pyrrolo[2,3-b]pyridin-3-ylmethyl)-pyridin-2-yl]-amine]	< 1
Clc1cnc2[nH]cc(Cc3ccc(NCc4ccccc4Cl)nc3)c2c1 [Compound P-0280, (2-Chloro-benzyl)-[5-(5-chloro-1H-pyrrolo[2,3-b]pyridin-3-ylmethyl)-pyridin-2-yl]-amine]	< 1
N#Cc1cnc2[nH]cc(Cc3ccc(NCc4ccccc4Cl)nc3)c2c1 [Compound P-0281, 3-[6-(2-Chloro-benzylamino)-pyridin-3-ylmethyl]-1H-pyrrolo[2,3-b]pyridine-5-carbonitrite]	< 1
COc1ccc(CNc2ccc(Cc3c[nH]c4ncc(C)cc34)cn2)cn1 [Compound P-0282, (6-Methoxy-pyridin-3-ylmethyl)-[5-(5-methyl-1H-pyrrolo[2,3-b]pyridin-3-ylmethyl)-pyridin-2-yl]-amine]	< 1
COc1ccc(CNc2ccc(Cc3c[nH]c4ncc(Cl)cc34)cn2)cn1 [Compound P-0283, [5-(5-Chloro-1H-pyrrolo[2,3-b]pyridin-3-ylmethyl)-pyridin-2-yl]-(6-methoxy-pyridin-3-ylmethyl)-amine]	< 1
COc1ccc(CNc2ccc(Cc3c[nH]c4ncc(C#N)cc34)cn2)cn1 [Compound P-0284, 3-{6-[(6-Methoxy-pyridin-3-ylmethyl)-amino]-pyridin-3-ylmethyl}-1H-pyrrolo[2,3-b]pyridine-5-carbonitrile]	< 1
COc1ncccc1CNc1ccc(Cc2c[nH]c3ncc(C)cc23)cn1 [Compound P-0285, (2-Methoxy-pyridin-3-ylmethyl)-[5-(5-methyl-1H-pyrrolo[2,3-b]pyridin-3-ylmethyl)-pyridin-2-yl]amine]	< 1
COc1ncccc1CNc1ccc(Cc2c[nH]c3ncc(Cl)cc23)cn1 [Compound P-0286, [5-(5-Chloro-1H-pyrrolo[2,3-b]pyridin-3-ylmethyl)-pyridin-2-yl]-(2-methoxy-pyridin-3-ylmethyl)-amine]	< 1
